Consider one molecule from publication PMC7615804.

In assay [1] the target is GST-JIP3^563-585 F576A (human) (UniProt Q9UPT6). The experiment in a line: pull-down; GST pull-down on glutathione resin with GST-JIP3^helix constructs as bait and RH1 domain constructs as prey; purified recombinant proteins, 50 - 300 pmol each in 20 μL GST-PD buffer (50 mM HEPES pH 7.5, 100 mM KCl, 1 mM MgCl2, 1 mM DTT), room temperature; Coomassie-stained SDS-PAGE; both purified.

Assay [2] deals with GST-JIP3^563-585 L579A (human) (UniProt Q9UPT6). The assay is described as above.

No constants are given. Whether binding was seen depends on the method and setting.

B1: JIP3^1-108 (RH1 domain construct) (domain or fragment, UniProt Q9ESN9-5 1-108)
chain: MMEIQMDEGGGVVVYQDDYCSGSVMSERVSGLAGSIYREFERLIHCYDEEVVKELMPLVVNVLENLDSVLSENQEHEVELELLREDNEQLLTQYEREKALRKQAEEKF
On to B1, for which the binding result in assay [1] and in assay [2] was “no binding (tested: 50 - 300 pmol each in 20 μL)” throughout.
